Laboratory results as given in the supplement of paper PMC10849652.
The list shows a part of the results.

Amino acid sequences for entries named in this document (tags omitted). A change or cut given only in a name is not applied to a line headed by its entry.
UniProt Q9H501: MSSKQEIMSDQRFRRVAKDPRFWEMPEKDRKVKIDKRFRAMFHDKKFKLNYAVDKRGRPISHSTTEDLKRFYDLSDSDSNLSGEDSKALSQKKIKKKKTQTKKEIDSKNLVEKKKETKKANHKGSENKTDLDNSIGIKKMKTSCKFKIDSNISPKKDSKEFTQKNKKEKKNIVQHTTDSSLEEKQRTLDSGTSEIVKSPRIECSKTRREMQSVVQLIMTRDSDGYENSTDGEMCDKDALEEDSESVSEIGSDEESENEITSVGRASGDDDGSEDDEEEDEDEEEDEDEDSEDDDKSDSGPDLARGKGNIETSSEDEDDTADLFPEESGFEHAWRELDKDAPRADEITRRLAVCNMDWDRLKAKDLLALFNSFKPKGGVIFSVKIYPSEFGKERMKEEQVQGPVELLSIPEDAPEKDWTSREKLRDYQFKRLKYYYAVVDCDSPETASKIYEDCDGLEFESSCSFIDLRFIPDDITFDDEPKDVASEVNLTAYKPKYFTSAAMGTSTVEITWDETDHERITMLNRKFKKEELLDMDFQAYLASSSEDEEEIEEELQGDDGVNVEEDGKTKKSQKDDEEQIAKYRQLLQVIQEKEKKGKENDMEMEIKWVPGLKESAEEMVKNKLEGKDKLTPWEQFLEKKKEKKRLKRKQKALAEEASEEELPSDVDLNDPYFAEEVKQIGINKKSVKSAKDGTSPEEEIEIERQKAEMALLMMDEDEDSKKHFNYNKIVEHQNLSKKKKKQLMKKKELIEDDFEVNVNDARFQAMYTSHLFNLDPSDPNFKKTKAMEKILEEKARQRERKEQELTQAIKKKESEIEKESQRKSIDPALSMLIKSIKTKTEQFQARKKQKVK
UniProt Q96EK7: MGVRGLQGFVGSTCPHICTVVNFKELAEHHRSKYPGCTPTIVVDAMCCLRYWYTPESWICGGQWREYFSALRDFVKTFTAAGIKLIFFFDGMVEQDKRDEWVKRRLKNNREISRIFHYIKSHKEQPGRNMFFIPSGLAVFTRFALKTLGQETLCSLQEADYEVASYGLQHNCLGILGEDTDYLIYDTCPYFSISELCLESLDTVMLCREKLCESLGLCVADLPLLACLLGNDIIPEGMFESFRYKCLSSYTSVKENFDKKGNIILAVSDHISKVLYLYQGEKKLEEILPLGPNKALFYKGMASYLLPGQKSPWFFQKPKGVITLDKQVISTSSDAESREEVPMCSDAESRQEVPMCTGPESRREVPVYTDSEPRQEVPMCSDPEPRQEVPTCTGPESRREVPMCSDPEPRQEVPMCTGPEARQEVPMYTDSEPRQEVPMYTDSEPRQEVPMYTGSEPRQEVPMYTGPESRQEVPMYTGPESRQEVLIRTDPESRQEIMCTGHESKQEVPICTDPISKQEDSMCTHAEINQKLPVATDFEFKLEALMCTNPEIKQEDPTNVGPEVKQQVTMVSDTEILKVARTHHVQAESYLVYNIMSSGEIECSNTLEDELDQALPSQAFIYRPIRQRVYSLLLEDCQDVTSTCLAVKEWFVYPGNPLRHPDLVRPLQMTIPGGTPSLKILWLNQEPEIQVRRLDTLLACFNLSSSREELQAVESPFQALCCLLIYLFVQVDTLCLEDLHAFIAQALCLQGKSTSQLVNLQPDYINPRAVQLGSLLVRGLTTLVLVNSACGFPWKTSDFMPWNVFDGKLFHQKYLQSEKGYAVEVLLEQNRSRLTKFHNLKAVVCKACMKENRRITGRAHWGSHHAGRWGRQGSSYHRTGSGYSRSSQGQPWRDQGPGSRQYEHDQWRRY
UniProt Q9Y624, whole entry, looked up, stated change not applied: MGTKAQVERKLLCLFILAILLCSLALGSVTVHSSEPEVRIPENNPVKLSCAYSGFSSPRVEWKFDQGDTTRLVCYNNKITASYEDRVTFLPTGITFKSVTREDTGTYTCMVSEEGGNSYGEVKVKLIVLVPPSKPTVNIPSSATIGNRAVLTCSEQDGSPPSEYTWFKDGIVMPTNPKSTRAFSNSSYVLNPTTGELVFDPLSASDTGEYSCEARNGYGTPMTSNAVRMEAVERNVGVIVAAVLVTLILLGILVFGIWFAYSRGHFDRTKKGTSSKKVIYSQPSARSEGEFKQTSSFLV
UniProt Q9H790: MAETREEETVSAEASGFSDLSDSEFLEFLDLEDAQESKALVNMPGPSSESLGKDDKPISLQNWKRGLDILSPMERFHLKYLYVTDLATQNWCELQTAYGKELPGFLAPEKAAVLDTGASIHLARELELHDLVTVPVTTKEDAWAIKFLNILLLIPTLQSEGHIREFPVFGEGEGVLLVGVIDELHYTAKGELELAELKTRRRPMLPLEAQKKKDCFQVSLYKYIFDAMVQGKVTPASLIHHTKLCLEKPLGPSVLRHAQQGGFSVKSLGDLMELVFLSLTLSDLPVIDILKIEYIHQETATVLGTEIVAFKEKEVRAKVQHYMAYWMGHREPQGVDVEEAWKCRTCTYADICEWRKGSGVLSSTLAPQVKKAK
UniProt Q9NVQ4: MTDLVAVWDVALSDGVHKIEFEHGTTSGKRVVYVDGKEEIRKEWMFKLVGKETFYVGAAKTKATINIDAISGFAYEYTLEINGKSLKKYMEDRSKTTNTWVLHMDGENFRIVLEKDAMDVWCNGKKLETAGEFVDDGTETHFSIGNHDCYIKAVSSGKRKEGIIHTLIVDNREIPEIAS
UniProt Q86YB8: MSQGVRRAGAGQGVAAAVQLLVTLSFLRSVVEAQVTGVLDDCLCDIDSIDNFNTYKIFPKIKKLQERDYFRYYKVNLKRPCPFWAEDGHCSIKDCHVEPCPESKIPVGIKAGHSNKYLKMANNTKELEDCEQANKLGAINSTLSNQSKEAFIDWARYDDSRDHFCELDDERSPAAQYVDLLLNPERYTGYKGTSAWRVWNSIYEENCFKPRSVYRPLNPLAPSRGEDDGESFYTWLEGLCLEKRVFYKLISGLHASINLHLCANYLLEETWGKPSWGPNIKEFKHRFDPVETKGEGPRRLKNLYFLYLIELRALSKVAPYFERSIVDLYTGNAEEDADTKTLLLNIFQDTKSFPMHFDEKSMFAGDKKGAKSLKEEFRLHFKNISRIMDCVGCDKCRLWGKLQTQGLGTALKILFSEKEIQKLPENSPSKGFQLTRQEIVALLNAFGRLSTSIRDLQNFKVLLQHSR
UniProt Q5W0V3: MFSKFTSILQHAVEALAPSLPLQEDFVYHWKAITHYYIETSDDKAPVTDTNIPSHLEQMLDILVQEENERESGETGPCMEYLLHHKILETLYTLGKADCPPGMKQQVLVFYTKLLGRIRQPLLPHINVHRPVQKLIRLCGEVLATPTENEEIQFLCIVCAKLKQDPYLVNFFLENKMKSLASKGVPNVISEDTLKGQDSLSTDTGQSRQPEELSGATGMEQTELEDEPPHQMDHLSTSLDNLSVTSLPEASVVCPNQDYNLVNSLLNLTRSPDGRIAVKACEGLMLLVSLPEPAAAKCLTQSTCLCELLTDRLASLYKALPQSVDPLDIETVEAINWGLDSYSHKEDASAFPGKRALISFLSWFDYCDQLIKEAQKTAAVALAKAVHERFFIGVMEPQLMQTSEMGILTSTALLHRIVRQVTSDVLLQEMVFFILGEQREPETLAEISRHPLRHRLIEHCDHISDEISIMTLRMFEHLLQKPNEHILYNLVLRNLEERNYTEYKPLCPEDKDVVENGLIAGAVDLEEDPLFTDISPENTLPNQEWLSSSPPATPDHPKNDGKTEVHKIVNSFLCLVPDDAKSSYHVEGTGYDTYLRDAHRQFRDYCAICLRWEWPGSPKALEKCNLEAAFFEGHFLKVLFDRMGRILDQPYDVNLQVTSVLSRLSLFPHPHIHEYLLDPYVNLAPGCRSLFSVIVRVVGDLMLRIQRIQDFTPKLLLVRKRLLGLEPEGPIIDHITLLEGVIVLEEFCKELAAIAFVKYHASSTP
UniProt Q9NZB2: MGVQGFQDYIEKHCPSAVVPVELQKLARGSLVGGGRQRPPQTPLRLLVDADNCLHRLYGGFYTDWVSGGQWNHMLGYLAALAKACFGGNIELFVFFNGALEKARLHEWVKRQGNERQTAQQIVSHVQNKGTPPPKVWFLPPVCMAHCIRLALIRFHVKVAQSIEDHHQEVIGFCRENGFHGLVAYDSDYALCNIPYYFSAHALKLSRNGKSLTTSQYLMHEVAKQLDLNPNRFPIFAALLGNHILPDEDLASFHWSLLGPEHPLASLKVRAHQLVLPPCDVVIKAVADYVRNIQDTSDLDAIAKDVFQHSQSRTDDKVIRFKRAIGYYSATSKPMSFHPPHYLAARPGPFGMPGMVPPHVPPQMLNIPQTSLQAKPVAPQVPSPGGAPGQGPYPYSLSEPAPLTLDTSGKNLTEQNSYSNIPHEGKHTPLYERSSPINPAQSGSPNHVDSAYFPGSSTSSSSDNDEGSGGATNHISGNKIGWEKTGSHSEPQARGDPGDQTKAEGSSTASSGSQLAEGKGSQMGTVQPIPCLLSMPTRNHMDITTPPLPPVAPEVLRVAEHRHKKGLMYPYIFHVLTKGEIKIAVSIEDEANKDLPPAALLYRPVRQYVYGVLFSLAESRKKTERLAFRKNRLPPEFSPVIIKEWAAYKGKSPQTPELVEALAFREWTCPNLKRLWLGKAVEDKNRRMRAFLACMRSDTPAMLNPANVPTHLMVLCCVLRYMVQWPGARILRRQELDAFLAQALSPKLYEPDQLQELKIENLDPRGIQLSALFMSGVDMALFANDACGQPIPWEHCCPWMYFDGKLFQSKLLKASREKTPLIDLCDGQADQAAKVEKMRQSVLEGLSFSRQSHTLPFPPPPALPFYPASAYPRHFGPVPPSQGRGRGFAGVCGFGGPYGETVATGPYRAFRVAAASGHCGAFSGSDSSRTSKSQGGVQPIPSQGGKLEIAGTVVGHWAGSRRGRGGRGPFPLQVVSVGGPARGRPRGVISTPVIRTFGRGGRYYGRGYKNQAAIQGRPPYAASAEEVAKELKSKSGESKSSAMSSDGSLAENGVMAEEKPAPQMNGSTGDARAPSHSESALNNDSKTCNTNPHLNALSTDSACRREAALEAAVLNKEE

How the values were obtained:
Experiment in all cases: log2 fold change, soluble protein after heating vs DMSO (PISA); higher = thermal stabilisation; K562 lysate, 10 uM; active = over 0.2 and 3.5 SD of the protein, either way, in both replicates (recomputed)
[1] = compound: C1=CC=C(C=C1)[C@H](COC2=CC3=C(C=C2)NC(=O)N3)NC(=O)C4=CC=CN(C4=O)CC5=CC(=C(C=C5)F)F
How it was run: (§1)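 Dounce homogenisation of K562 pellets in PBS pH 7.4 with 1 mM MgCl2 produced a crude extract, used at 1 mg/mL protein. Exposure to 10 μM compound lasted 30 min, and aliquots were then heated for 3 min across 48°C-58°C, pooled and brought to 0.5% NP-40 at 4°C. The supernatant after 21,000xg for 90 min was quantified by TMTpro 16plex LC-MS/MS with channel sums equalised. Duplicate values are given as log-two fold change in thermal stability relative to solvent controls.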

[2] = compound: CC1=C(SC2=C1C(=N[C@H](C3=NN=C(N32)C)CC(=O)N)C4=CC=C(C=C4)Cl)C
How it was run: as §1

[3] = compound: CC1=C2C(=CC=C1)N=C(N(C2=O)C3=CC=CC=C3C)CN4C=NC5=C(N=CN=C54)N
How it was run: as §1

[4] = compound: Cc1sc2c(c1C)C(c1ccc(Cl)cc1)=N[C@@H](CC(=O)OC(C)(C)C)c1nnc(C)n1-2
How it was run: as §1

[5] = compound: c1ccc([C@@H]2C[C@H]2NC2CCNCC2)cc1
How it was run: as §1

Measured: log2 fold change

ESF1 (UniProt Q9H501)
inactive: [1] 0.04 | [2] 0.036 | [3] 0.021 | [4] 0.037 | [5] -0.027

FAM120B (UniProt Q96EK7)
inactive: [1] 0.034 | [2] 0.059 | [3] -0.004 | [4] -0.016 | [5] 0.035

F11R (UniProt Q9Y624)
inactive: [1] 0.022 | [2] -0.012 | [3] 0.03 | [4] -0.024 | [5] -0.055

EXO5 (UniProt Q9H790)
inactive: [1] 0.033 | [2] -0.179

FAIM isoform 2 (UniProt Q9NVQ4)
inactive: [1] 0.071 | [2] 0.074 | [3] 0.037 | [4] -0.017 | [5] 0.002

ERO1B (UniProt Q86YB8)
inactive: [1] 0 | [2] 0.108 | [3] -0.005 | [4] 0.02 | [5] 0.006

FAM160B1 (UniProt Q5W0V3)
inactive: [1] 0.018 | [2] -0.011 | [3] 0.008 | [4] 0.034 | [5] -0.012

FAM120A isoform 6 (UniProt Q9NZB2)
inactive: [1] -0.04 | [2] 0.009 | [3] -0.003 | [4] -0.022 | [5] -0.007

ERP29 (UniProt P30040)
inactive: [1] 0.015 | [2] 0.022 | [3] -0.03 | [4] 0.032 | [5] 0.072
